Source: publication PMC5570905, “Phytochrome-interacting factors directly suppress MIR156 expression to enhance shade-avoidance syndrome in Arabidopsis”
No constants are given. Whether binding was seen depends on the method and setting.

Legend:
Experiment in all cases: two-hybrid; pGADT7-PIFs and pGBKT7-SPLs co-transformed into yeast strain AH109; transformants selected on SD/-Ura/-Leu, interaction tested on SD/-Ura/-Leu/-His/-Ade
[1] = biological target: T1, SQUAMOSA-PROMOTER BINDING PROTEIN-LIKE 4 (Arabidopsis thaliana) (UniProt Q9S7A9)
T1 sequence: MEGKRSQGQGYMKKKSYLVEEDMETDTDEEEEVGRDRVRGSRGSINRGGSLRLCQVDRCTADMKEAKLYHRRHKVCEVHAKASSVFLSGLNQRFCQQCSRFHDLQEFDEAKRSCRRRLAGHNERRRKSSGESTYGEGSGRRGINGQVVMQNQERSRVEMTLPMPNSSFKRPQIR

[2] = biological target: T2, SQUAMOSA-PROMOTER BINDING PROTEIN-LIKE 10 (Arabidopsis thaliana) (UniProt Q8S9L0)
T2 sequence: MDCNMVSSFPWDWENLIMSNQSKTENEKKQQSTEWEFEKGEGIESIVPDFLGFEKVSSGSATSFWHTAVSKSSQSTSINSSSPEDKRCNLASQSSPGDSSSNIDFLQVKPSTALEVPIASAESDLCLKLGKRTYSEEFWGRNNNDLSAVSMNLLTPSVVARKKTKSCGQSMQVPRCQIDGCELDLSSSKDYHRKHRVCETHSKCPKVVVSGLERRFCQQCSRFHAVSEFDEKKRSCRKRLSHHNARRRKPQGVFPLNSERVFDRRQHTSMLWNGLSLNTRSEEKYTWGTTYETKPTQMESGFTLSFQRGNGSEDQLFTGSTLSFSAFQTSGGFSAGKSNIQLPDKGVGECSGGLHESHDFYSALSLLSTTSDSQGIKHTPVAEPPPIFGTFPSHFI

[3] = biological target: T3, SQUAMOSA-PROMOTER BINDING PROTEIN-LIKE 2 (Arabidopsis thaliana) (UniProt Q9S840)
T3 sequence: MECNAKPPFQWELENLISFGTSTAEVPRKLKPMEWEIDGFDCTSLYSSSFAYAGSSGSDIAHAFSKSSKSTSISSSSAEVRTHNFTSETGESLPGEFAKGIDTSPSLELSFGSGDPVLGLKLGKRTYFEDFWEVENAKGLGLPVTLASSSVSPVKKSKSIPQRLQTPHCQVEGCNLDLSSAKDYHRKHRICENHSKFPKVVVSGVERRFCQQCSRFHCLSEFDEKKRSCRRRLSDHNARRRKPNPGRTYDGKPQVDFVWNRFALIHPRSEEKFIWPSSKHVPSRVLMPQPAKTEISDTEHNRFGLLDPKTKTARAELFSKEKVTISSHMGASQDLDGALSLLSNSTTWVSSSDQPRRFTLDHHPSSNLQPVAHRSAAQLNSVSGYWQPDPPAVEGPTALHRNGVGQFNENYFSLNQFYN

[4] = biological target: T4, SQUAMOSA-PROMOTER BINDING PROTEIN-LIKE 9 (Arabidopsis thaliana) (UniProt Q700W2)
T4 sequence: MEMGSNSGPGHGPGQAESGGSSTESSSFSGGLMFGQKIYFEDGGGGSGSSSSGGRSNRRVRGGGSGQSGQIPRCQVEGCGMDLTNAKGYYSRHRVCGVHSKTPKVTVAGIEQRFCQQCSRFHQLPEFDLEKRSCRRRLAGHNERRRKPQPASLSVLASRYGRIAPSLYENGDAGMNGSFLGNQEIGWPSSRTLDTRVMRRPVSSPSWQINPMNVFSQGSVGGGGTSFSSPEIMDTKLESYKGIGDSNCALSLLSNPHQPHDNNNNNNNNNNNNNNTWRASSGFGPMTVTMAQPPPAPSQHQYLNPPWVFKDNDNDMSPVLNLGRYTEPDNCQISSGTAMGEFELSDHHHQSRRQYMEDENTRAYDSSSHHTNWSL

[5] = biological target: T5, SQUAMOSA-PROMOTER BINDING PROTEIN-LIKE 5 (Arabidopsis thaliana) (UniProt Q9S758)
T5 sequence: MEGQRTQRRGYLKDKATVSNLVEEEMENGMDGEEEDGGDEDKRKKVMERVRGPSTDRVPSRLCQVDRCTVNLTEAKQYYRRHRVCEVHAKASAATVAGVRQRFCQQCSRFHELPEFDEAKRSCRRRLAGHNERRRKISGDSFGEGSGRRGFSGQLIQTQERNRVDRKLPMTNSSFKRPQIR

[6] = biological target: T6, SQUAMOSA-PROMOTER BINDING PROTEIN-LIKE 3 (Arabidopsis thaliana) (UniProt P93015)
T6 sequence: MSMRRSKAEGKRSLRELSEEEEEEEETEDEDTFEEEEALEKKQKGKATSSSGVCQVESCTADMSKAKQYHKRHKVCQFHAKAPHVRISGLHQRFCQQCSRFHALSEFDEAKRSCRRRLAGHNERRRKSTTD

[7] = biological target: T7, SQUAMOSA-PROMOTER BINDING PROTEIN-LIKE 11 (Arabidopsis thaliana) (UniProt Q9FZK0)
T7 sequence: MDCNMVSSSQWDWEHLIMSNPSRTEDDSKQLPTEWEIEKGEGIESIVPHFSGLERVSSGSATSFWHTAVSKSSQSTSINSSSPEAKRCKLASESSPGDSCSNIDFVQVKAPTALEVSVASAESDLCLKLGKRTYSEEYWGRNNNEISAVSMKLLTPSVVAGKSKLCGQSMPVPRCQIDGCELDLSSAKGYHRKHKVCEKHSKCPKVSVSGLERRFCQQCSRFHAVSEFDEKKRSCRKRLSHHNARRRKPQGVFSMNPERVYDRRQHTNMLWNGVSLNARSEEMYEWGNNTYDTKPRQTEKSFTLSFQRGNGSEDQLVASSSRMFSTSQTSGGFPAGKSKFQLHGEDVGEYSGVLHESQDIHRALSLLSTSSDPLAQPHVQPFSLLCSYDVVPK

[8] = biological target: T8, SQUAMOSA-PROMOTER BINDING PROTEIN-LIKE 15 (Arabidopsis thaliana) (UniProt Q9M2Q6)
T8 sequence: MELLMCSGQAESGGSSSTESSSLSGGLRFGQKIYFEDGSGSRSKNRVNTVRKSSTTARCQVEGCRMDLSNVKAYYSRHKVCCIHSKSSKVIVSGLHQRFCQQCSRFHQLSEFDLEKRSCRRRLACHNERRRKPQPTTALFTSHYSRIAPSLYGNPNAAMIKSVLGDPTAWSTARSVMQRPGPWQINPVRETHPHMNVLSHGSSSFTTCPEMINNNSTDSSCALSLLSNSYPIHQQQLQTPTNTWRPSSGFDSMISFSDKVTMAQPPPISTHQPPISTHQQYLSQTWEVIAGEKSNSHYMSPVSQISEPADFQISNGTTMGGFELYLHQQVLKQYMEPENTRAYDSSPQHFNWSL

Measured: binding

B1: PHYTOCHROME-… FACTOR 1 (protein, UniProt Q8GZM7 1-478)
chain: MHHFVPDFDTDDDYVNNHNSSLNHLPRKSITTMGEDDDLMELLWQNGQVVVQNQRLHTKKPSSSPPKLLPSMDPQQQPSSDQNLFIQEDEMTSWLHYPLRDDDFCSDLLFSAAPTATATATVSQVTAARPPVSSTNESRPPVRNFMNFSRLRGDFNNGRGGESGPLLSKAVVRESTQVSPSATPSAAASESGLTRRTDGTDSSAVAGGGAYNRKGKAVAMTAPAIEITGTSSSVVSKSEIEPEKTNVDDRKRKEREATTTDETESRSEETKQARVSTTSTKRSRAAEVHNLSERKRRDRINERMKALQELIPRCNKSDKASMLDEAIEYMKSLQLQIQMMSMGCGMMPMMYPGMQQYMPHMAMGMGMNQPIPPPSFMPFPNMLAAQRPLPTQTHMAGSGPQYPVHASDPSRVFVPNQQYDPTSGQPQYPAGYTDPYQQFRGLHPTQPPQFQNQATSYPSSSRVSSSKESEDHGNHTTG
no binding: [1] | [2] | [3] | [4] | [5] | [6] | [7] | [8]

B2: PHYTOCHROME-… FACTOR 5 (protein, UniProt Q84LH8 1-444)
chain: MEQVFADWNFEDNFHMSTNKRSIRPEDELVELLWRDGQVVLQSQARREPSVQVQTHKQETLRKPNNIFLDNQETVQKPNYAALDDQETVSWIQYPPDDVIDPFESEFSSHFFSSIDHLGGPEKPRTIEETVKHEAQAMAPPKFRSSVITVGPSHCGSNQSTNIHQATTLPVSMSDRSKNVEERLDTSSGGSSGCSYGRNNKETVSGTSVTIDRKRKHVMDADQESVSQSDIGLTSTDDQTMGNKSSQRSGSTRRSRAAEVHNLSERRRRDRINERMKALQELIPHCSRTDKASILDEAIDYLKSLQMQLQVMWMGSGMAAAAAAAASPMMFPGVQSSPYINQMAMQSQMQLSQFPVMNRSAPQNHPGLVCQNPVQLQLQAQNQILSEQLARYMGGIPQMPPAGNQMQTVQQQPADMLGFGSPAGPQSQLSAPATTDSLHMGKIG
no binding: [1] | [2] | [3] | [4] | [5] | [6] | [7] | [8]
